PubChem BioAssay AID504808, Drosophila RNAi Screening Center, 2011
Aim: 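Genes whose loss lifts activity of an E2F-responsive reporter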 (primary screen). Cell system: Drosophila S2 cells. Knock-down reagent: long dsRNA against Drosophila genes. Measurement: 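Dual luciferase plate measurements; E2F-specific signal taken as firefly over Renilla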. Scale: E2F firefly: higher = more E2F reporter activity; Renilla normaliser: higher = more normaliser reporter signal. Hit rule: 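Called active if the normalised E2F reporter went up by over 50%; the cutoff is arbitrary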.
In all, the deposit lists about 21,000 reagents; shown is an unselected part of those with a known target gene and a result. In the full data, 18 (0.084%) were called active. 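Raw counts without plate normalisation, one of two replicates; the ratio scores behind the calls were not deposited.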 Unmarked entries are inactive. A plus sign joins genes that one reagent is predicted to hit. Not stated in the record: the amount of reagent, the time to read-out.

The opening 9 entries as a preview:
| target | dsRNA | E2F firefly, rep 1 | Renilla normaliser, rep 1 |
| --- | --- | --- | --- |
| MFS18 (Major Facilitator Superfamily Transporter 18) | DRSC00452 | 93341 | 3853 |
| CG3036 | DRSC00260 | 1.46e5 | 6205 |
| CG3036 | DRSC00562 | 1.07e5 | 3987 |
| TH1 | DRSC20289 | 9198 | 820 |
| ImpE3 (Ecdysone-inducible gene E3) | DRSC16716 | 1.24e5 | 7159 |
| e(y)2b (enhancer of yellow 2b) | DRSC12556 | 1.28e5 | 6975 |
| TwdlE (TweedleE) | DRSC02392 | 1.59e5 | 5323 |
| cl (clot) | DRSC02118 | 87244 | 3416 |
| Cyp313a4 (Cytochrome P450 313a4) | DRSC16627 | 1.46e5 | 7024 |

Results, from the start:
| target | dsRNA | E2F firefly, rep 1 | Renilla normaliser, rep 1 |
| --- | --- | --- | --- |
| MFS18 (Major Facilitator Superfamily Transporter 18) | DRSC00452 | 93341 | 3853 |
| CG3036 | DRSC00260 | 1.46e5 | 6205 |
| CG3036 | DRSC00562 | 1.07e5 | 3987 |
| TH1 | DRSC20289 | 9198 | 820 |
| ImpE3 (Ecdysone-inducible gene E3) | DRSC16716 | 1.24e5 | 7159 |
| e(y)2b (enhancer of yellow 2b) | DRSC12556 | 1.28e5 | 6975 |
| TwdlE (TweedleE) | DRSC02392 | 1.59e5 | 5323 |
| cl (clot) | DRSC02118 | 87244 | 3416 |
| Cyp313a4 (Cytochrome P450 313a4) | DRSC16627 | 1.46e5 | 7024 |
| Tat (Tyrosine aminotransferase) | DRSC19602 | 1.49e5 | 5619 |
| CG14961 | DRSC08420 | 94555 | 4132 |
| RpL14 (Ribosomal protein L14) | DRSC11269 | 69299 | 4487 |
| CG5674 | DRSC02874 | 77517 | 4058 |
| Dolk (Dolichol kinase) | DRSC07143 | 1.36e5 | 4901 |
| beta-PheRS (Phenylalanyl-tRNA synthetase, beta-subunit) | DRSC15859 | 70169 | 3548 |
| Pex5 (Peroxin 5) | DRSC18552 | 1.32e5 | 6412 |
| CG10919 | DRSC14283 | 1.38e5 | 6641 |
| sba (six-banded) | DRSC13643 | 67142 | 1857 |
| sba (six-banded) | DRSC17050 | 1.18e5 | 6596 |
| CG31559 | DRSC12172 | 1.40e5 | 7081 |
| CG31559 | DRSC12270 | 1.42e5 | 6382 |
| ND-20L (NADH dehydrogenase (ubiquinone) 20 kDa subunit-like) | DRSC15414 | 1.37e5 | 5711 |
| CG30334 | DRSC05345 | 1.20e5 | 5671 |
| Wnt10 (Wnt oncogene analog 10) | DRSC00990 | 1.45e5 | 3370 |
| Wnt10 (Wnt oncogene analog 10) | DRSC02797 | 1.49e5 | 5015 |
| Cib2 (Calcium and integrin binding family member 2) | DRSC04535 | 1.08e5 | 4167 |
| ppk18 (pickpocket 18) | DRSC02216 | 1.36e5 | 4878 |
| Trpm (Transient receptor potential cation channel, subfamily M) | DRSC06629 | 77993 | 3580 |
| Ir93a (Ionotropic receptor 93a) | DRSC15212 | 69625 | 5386 |
| Ir93a (Ionotropic receptor 93a) | DRSC15213 | 1.53e5 | 7465 |
| CG13461 | DRSC10008 | 1.40e5 | 7689 |
| dpr8 (defective proboscis extension response 8) | DRSC19406 | 2.34e5 | 5878 |
| dpr8 (defective proboscis extension response 8) | DRSC19600 | 1.17e5 | 5153 |
| dpr8 (defective proboscis extension response 8) | DRSC19938 | 1.57e5 | 6348 |
| dpr8 (defective proboscis extension response 8) | DRSC19939 | 1.55e5 | 6391 |
| Srp72 (Signal recognition particle 72) | DRSC15800 | 61629 | 3605 |
| CG8060 | DRSC07064 | 74291 | 3629 |
| eIF2beta (eukaryotic translation initiation factor 2 subunit beta) | DRSC11341 | 60213 | 5810 |
| hog | DRSC19057 | 90666 | 3432 |
| CG10413 | DRSC02052 | 83706 | 3417 |
| CG14646 | DRSC12232 | 84366 | 3776 |
| Idua (alpha-L-iduronidase) | DRSC02941 | 74417 | 3799 |
| Yod1 (Yod1 deubiquitinase) | DRSC10433 | 74347 | 3233 |
| CG30065 | DRSC05420 | 1.31e5 | 4476 |
| CG3597 | DRSC00617 | 1.66e5 | 6367 |
| Cpr65Aw (Cuticular protein 65Aw) | DRSC08794 | 1.25e5 | 3801 |
| Iswi (Imitation SWI) | DRSC07446 | 88877 | 4416 |
| CG12436 (retired record) | DRSC09869 | 1.73e5 | 8065 |
| CG12436 (retired record) | DRSC09885 | 1.68e5 | 7737 |
| trv (trivet) | DRSC13846 | 72269 | 2410 |
| trv (trivet) | DRSC14559 | 1.28e5 | 5818 |
| trv (trivet) | DRSC14560 | 1.12e5 | 6006 |
| trv (trivet) | DRSC14561 | 1.26e5 | 5280 |
| RpL18A (Ribosomal protein L18A) | DRSC07538 | 85562 | 5588 |
| RhoGAP92B (Rho GTPase activating protein at 92B) | DRSC14507 | 1.43e5 | 7482 |
| RhoGAP92B (Rho GTPase activating protein at 92B) | DRSC15637 | 1.28e5 | 5972 |
| CG7668 | DRSC10901 | 81194 | 3107 |
| btz (barentsz) | DRSC14566 | 1634 | 820 |
| Prosalpha6T (Proteasome alpha6 subunit, Testis-specific) | DRSC02873 | 1.01e5 | 4071 |
| robo1 (roundabout 1) | DRSC04712 | 98434 | 3718 |
| Sras (severas) | DRSC11287 | 96168 | 4161 |
| Uhg2 + snoRNA:Me18S-G1620 + snoRNA:U14:30Ea | DRSC01100 | 1.24e5 | 7179 |
| PTP-ER (Protein tyrosine phosphatase-ERK/Enhancer of Ras1) | DRSC04636 | 73209 | 3782 |
| CG15878 | DRSC08486 | 1.02e5 | 3889 |
| Hr51 (Hormone receptor 51) | DRSC06627 | 92206 | 3556 |
| grh (grainy head) | DRSC05680 | 1.78e5 | 6172 |
| grh (grainy head) | DRSC05683 | 1.54e5 | 4809 |
| grh (grainy head) | DRSC07624 | 75036 | 3575 |
| grh (grainy head) | DRSC07625 | 1.56e5 | 5039 |
| rdgA (retinal degeneration A) | DRSC17863 | 78440 | 4560 |
| rdgA (retinal degeneration A) | DRSC18036 | 88317 | 4562 |
| rdgA (retinal degeneration A) | DRSC18827 | 7657 | 816 |
| CG11456 | DRSC11665 | 71595 | 3298 |
| Xpd (Xeroderma pigmentosum D) | DRSC04666 | 72308 | 3691 |
| Cpr30B (Cuticular protein 30B) | DRSC02728 | 1.44e5 | 5108 |
| FRG1 (FSHD region gene 1) | DRSC10648 | 1.13e5 | 6438 |
| CG9616 | DRSC16518 | 1.07e5 | 5621 |
| CG6928 | DRSC10749 | 69264 | 4009 |
| Bap60 (Brahma associated protein 60kD) | DRSC19337 | 7206 | 788 |
| zfh1 (Zn finger homeodomain 1) | DRSC14014 | 84522 | 2953 |
| zfh1 (Zn finger homeodomain 1) | DRSC17098 | 1525 | 1060 |
| Gale (UDP-galactose 4'-epimerase) | DRSC08234 | 76585 | 3371 |
| CG32365 | DRSC10040 | 1.03e5 | 4305 |
| CG32365 | DRSC10041 | 90377 | 3967 |
| CG32365 | DRSC10977 | 94469 | 4368 |
| CG16758 | DRSC07984 | 1.34e5 | 4484 |
| CG16758 | DRSC08492 | 75173 | 3239 |
| ppk30 (pickpocket 30) | DRSC15302 | 1.30e5 | 6917 |
| CG6066 | DRSC15959 | 1.24e5 | 6345 |
| CG15211 | DRSC19657 | 1.36e5 | 5870 |
| dare (defective in the avoidance of repellents) | DRSC07602 | 3128 | 205 |
| CG4239 | DRSC19885 | 7829 | 784 |
| Teh3 (tipE homolog 3) | DRSC08537 | 1.03e5 | 3925 |
| Fmo-1 (Flavin-containing monooxygenase 1) | DRSC04328 | 83108 | 3073 |
| mthl7 (methuselah-like 7) | DRSC10852 | 1.03e5 | 4038 |
| CG42586 + CG31775 | DRSC01413 | 1.22e5 | 5729 |
| nrv3 (nervana 3) | DRSC03097 | 58886 | 3505 |
| Sgsh (N-sulfoglucosamine sulfohydrolase) | DRSC14771 | 1.29e5 | 7866 |
| CG18095 | DRSC01948 | 1.03e5 | 4382 |
| Cyp12a5 (Cytochrome P450 12a5) | DRSC16621 | 1.51e5 | 7796 |
| Abca3 (ATP binding cassette subfamily A member 3) | DRSC20546 | 1.42e5 | 5833 |
| CG9992 | DRSC20226 | 8316 | 816 |
| CG11294 | DRSC17777 | 75613 | 5308 |
| CG14246 | DRSC14741 | 1.12e5 | 5778 |
| CG11635 + spaw | DRSC06075 | 1.46e5 | 5564 |
| Ubx (Ultrabithorax) | DRSC16891 | 1.27e5 | 7254 |
| Or30a (Odorant receptor 30a) | DRSC03385 | 1.69e5 | 5991 |
